# Percent effect of library compounds

The values are deposited in ChEMBL (CHEMBL3988442, “University of Dundee, Small-Polar-MMV Screening Library” (2021)).

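Growth of Mycobacterium tuberculosis over 3 days (7H9 medium with glucose and tyloxapol); the read-out is not stated. Compounds at 50 µM. Higher reads as more growth inhibition (inferred: compounds with an IC50 in retests scored well above the rest). Size under these conditions: about 69,000 compounds, about 760 of them at 50% or above in at least one test.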

The filed quantity is “Percent Effect” (%). The record does not define 0% and 100%; most values in the screen are far below 50% and negative numbers occur (in some assays of this library far below -100). The compounds are a random part of those screened. Two or more numbers in one place are separate tests of the same structure; such repeats can differ widely.

CS(=O)(=O)N1CCCCC12CCN(c1nncs1)CC2 gave 4.771%.
O=C(O)C(F)(F)F.[H][C@@]12CN(Cc3cccs3)CCO[C@]1([H])CN(S(=O)(=O)CC)C2 gave 0.5286% and 0.2185%.
Cc1ccc(C2CCCN2Cc2nc3c(cnn3C)c(=O)[nH]2)cc1C (centres unmarked) gave 10.96%.
Cc1cc(C)c(Cn2cncn2)cc1CN1CCC(CN)C1 (centres unmarked) gave 12.13%.
O=C(NCC(F)(F)F)NC1CCCc2c1cnn2CCO (centres unmarked) gave 29.52%.
COc1ccccc1OCCC(=O)N1CCCC1Cn1cccn1 (centres unmarked) gave 3.028%.
Cc1nc(CN2CCC3(CCN(Cc4cnn(C)c4)CC3)C2=O)cs1.O=C(O)C(F)(F)F.O=C(O)C(F)(F)F gave -43.8%.
CN(C)c1cncc(C2CCN(CC(N)=O)CC2)n1 gave 3.419%.
CN1CCN(C(=O)c2cn(-c3ccc(C(F)(F)F)cn3)nn2)CC1 gave -16.81%.
CCCc1nnc(NC(=O)N2CCCC(NC(C)=O)C2)s1 (centres unmarked) gave -21.97%.
CCC(Nc1nnnn1-c1ccccc1)C(=O)NCc1cccs1 (centres unmarked) gave 21.7%.
Cc1cc(C)c2c(c1)C(NC(=O)CSCc1ccncc1)CCO2 (centres unmarked) gave 11.1%.
Cc1c(Br)cccc1C(=O)NCC1CCNCC1.Cl gave -10.33% and -9.205%.
CC(=O)N1CCCC1CCc1ccc(Cl)nn1 (centres unmarked) gave -4.712%.
CC(C)c1nnc2n1CCN(C(=O)c1ccc3c(c1)CCC3)C2 gave -9.024%.
O=C1CC2(CCN(S(=O)(=O)c3cccs3)C2)CN1c1cccc(F)c1 (centres unmarked) gave -5.102%.
O=C(CCCn1cncn1)N1CCCC1c1nc(-c2ccccc2)no1 (centres unmarked) gave 2.073%.
CCC1=NC(SCC(=O)c2ccccc2)c2cc(CC)sc2N1 (centres unmarked) gave 58.68%.
Cc1nccn1-c1ccc(NC(=O)C2CCCN2CC2CC2)cc1 (centres unmarked) gave 5.495%.
CC(C)Oc1ccc(CN2CCC(Cc3nnc(CO)n3C)CC2)cc1 gave -3.002%.
COCCn1cnc2ccc(NC(=O)c3c(C)noc3C)cc2c1=O gave -16.42%.
O=C1CSC(c2ccsc2)c2c(n(C3CCOCC3)[nH]c2=O)N1 (centres unmarked) gave 9.33%.
CN(C(=O)C1CC(=O)N(CCc2ccccc2)C1)c1nccs1 (centres unmarked) gave -43.72%.
Cc1ccc2c(c1)OCCN2C(=O)c1ccc(=O)n(C)c1 gave -1.518%.
CCn1c(C)nnc1SCCNc1nc(C)nc2ncccc12 gave 3.674%.
[H][C@@]12CCN(C(=O)c3ccoc3C)C[C@@]1([H])O[C@H](c1nnc(C3CC3)o1)C2 gave 19.29%.
CNc1nc(C)c(C(=O)N2CCCCC2CCc2ccc(O)cc2)s1 (centres unmarked) gave -44.19%.
CC(C)NC(=O)c1ccc2c(c1)C1(CCN(C)CC1)C(=O)N2.O=C(O)C(F)(F)F gave -11.57%.
CN1CC(=O)N(c2ccsc2)CC12CCN(C(=O)c1ccc[nH]1)C2 (centres unmarked) gave 9.94%.
O=C(c1cncs1)N1CCc2[nH]nc(Nc3ccccc3)c2C1 gave -3.253%.
CCc1nc2c(s1)C(N(C)C(=O)c1cc[nH]n1)CCC2 (centres unmarked) gave 9.667%.
CCS(=O)(=O)CCCN1CCSCC1c1ccc(Cl)cc1 (centres unmarked) gave 5.439% and 4.301%.
CC(C(=O)N1CCCN(c2ncccc2C#N)CC1)n1cccn1 (centres unmarked) gave -2.958%.
Cc1cnc(CN2CCOC(Cn3nc(C)nc3C)C2)cn1 (centres unmarked) gave -16.93%.
Cc1nn(C)c(C)c1CCC(=O)NCC1(C(N)=O)CCOCC1 gave 23.83%.
N#Cc1cnc2ccccc2c1N1CCNCC1 gave 23.06%.
CC(C)S(=O)(=O)c1ccccc1C(=O)NCC1Cc2ccccc2O1 (centres unmarked) gave 23.07%.
CC(C)c1noc(CN(C)C(=O)c2ncn[nH]2)n1 gave -28.26%.
CCc1c(C)nc(C)nc1N1C[C@@H](CN(CC)CCO)[C@@H](CO)C1 gave -32.12%.
CC1CCCN(C(=O)c2occc2COc2cccc(C#N)c2)C1 (centres unmarked) gave 25.03%.
CCn1c(CN2CCC(O)(C(=O)OC)CC2)nc2c(F)cccc21 gave -20.49%.
COc1ccc(CNC(=O)N2CCC(Cc3cnn(C)c3)C2)cc1C (centres unmarked) gave 14.16%.
CCN1CCN(CC(=O)N2CCOC(Cc3ccc(OC)cc3)C2)CC1 (centres unmarked) gave -0.2733%.
CN(C)CCOCC1CN(Cc2ccncc2)Cc2nnn(C)c21.O=C(O)C(F)(F)F.O=C(O)C(F)(F)F.O=C(O)C(F)(F)F (centres unmarked) gave -12.05%.
CCOc1ncccc1CNS(=O)(=O)c1ccc2c(c1)CCCC(=O)N2 gave -1.513%.
O=C(O)C(F)(F)F.[H][C@@]12C[C@@H](C)O[C@]1([H])CN(Cc1nccs1)C2 gave -3.282% and -2.284%.
Cc1nc(C(=O)N(CC(=O)N(C)C)CC(F)(F)F)c2ccccn12 gave 1.278% and -4.286%.
O=C(C1CCOC1)N1CCN(Cc2cccnc2)c2ncccc2C1 (centres unmarked) gave -4.065%.
COc1ccccc1OCCNc1snc(Cl)c1C#N gave 24.18%.
O=C1NC2(CCCN(C(=O)CCn3cccn3)C2)Oc2ccccc21 (centres unmarked) gave -21.1%.
CC(C)OCCCNC(=O)CN1CCN(c2nccs2)CC1 gave -20.07%.
Cc1cnccc1CNCc1ccc(OC23CCCN(CC2)C3)cc1 (centres unmarked) gave 32.18%.
COc1cccc(OCCn2c(C)c(C)oc2=O)c1 gave -21.79%.
CCn1ccnc1CN1CCN(CC(O)c2ccco2)CC1 (centres unmarked) gave 14.83%.
CC(=O)NCCCC(=O)NC(C)c1nnc2n1CCC2 (centres unmarked) gave -17.12%.
CN1CCC2(C=C(C(=O)N(C)C)c3ccccc32)CC1 gave 0.3319%.

For reference, 6 entries once more:

- CCS(=O)(=O)CCCN1CCSCC1c1ccc(Cl)cc1 (centres unmarked) : 5.439% and 4.301%
- CCn1c(CN2CCC(O)(C(=O)OC)CC2)nc2c(F)cccc21 : -20.49%
- CN1CC(=O)N(c2ccsc2)CC12CCN(C(=O)c1ccc[nH]1)C2 (centres unmarked) : 9.94%
- Cc1nccn1-c1ccc(NC(=O)C2CCCN2CC2CC2)cc1 (centres unmarked) : 5.495%
- CC(=O)N1CCCC1CCc1ccc(Cl)nn1 (centres unmarked) : -4.712%
- CCc1c(C)nc(C)nc1N1C[C@@H](CN(CC)CCO)[C@@H](CO)C1 : -32.12%